Assay results: article PMC9646512
For part of these data: A negative result means that nothing was seen under these conditions. For part of these data: Construct, isoform or probe ends are uncertain for at least one entry. For part of these data: At least one verdict rests on a figure or table, not on a statement of the authors.

What was measured:
streptavidin [1] = assay: ITC; conditions: all L-DNA (mirror image); ITC: 20 mM HEPES-NaOH, 150 mM NaCl, 5 mM KCl, 2 mM MgCl2, 1 mM CaCl2, pH 7.4, 25 C; commercial protein; synthetic backbone
[2] = test system: native human alpha-thrombin (Homo sapiens); assay: thrombin activity inhibition; conditions: no inhibition, direct binding not tested; natural D-DNA; commercial protein; folded or branched DNA
[3] = test system: native human alpha-thrombin (Homo sapiens); assay: structure-switching fluorescence; conditions: 37 C, ITC: 20 mM HEPES-NaOH, 150 mM NaCl, 5 mM KCl, 2 mM MgCl2, 1 mM CaCl2, pH 7.4, 25 C, commercial protein
[4] = test system: native bovine alpha-thrombin (Bos taurus (bovine)); assay: structure-switching fluorescence; conditions: 1 uM protein; all L-DNA (mirror image); ITC: 20 mM HEPES-NaOH, 150 mM NaCl, 5 mM KCl, 2 mM MgCl2, 1 mM CaCl2, pH 7.4, 25 C; commercial protein; synthetic backbone
streptavidin [5] = assay: structure-switching fluorescence; conditions: 1 uM protein; all L-DNA (mirror image); ITC: 20 mM HEPES-NaOH, 150 mM NaCl, 5 mM KCl, 2 mM MgCl2, 1 mM CaCl2, pH 7.4, 25 C; commercial protein; synthetic backbone
[6] = test system: native human alpha-thrombin (Homo sapiens); assay: aptamer western blot; conditions: SDS-PAGE, nitrocellulose, 500 nM aptamer; all L-DNA (mirror image); commercial protein; label: 5'-Cy5; synthetic backbone
streptavidin [7] = assay: aptamer western blot; conditions: SDS-PAGE, nitrocellulose, 500 nM aptamer; all L-DNA (mirror image); commercial protein; label: 5'-Cy5; synthetic backbone

“ACGGAACGCGTTTCAAGACTACCGTGTTTGTTCCGT [L-9-1t aptamer]”: no binding (streptavidin [1]).
With “GATGAACTTGTTGAAACCCAACGGGAGCCTCGTTCATT [D-L-13t]” the IC50 [2] was > 8 µM.
“CGGATCCAGTTACGGACTGAACAGAAGGGTGGTGTGGTTGGACTGTTCA / TCCGTAACTGGATCCG / ACCCTTCTGTTCA [D-DNA aptamer sensor]”: binds [3].
“GATGAACTTGTTGAAACCCAACGGGAGAATCGTTCATT [L-9-2t aptamer]”: no binding (streptavidin [1]).
“CAGCTCGGATCCAGTTACGGAACGCGTTTCAAGACTACCGTGTTTGTTCCGT / ACTGGATCCGAGCTG / ACGCGTTCCGT [L-DNA aptamer sensor]”: no binding [4]; binds ([3]; all L-DNA (mirror image), synthetic backbone); no binding (streptavidin [5]).
“GATGAACTTGTTGAAACCCAACGGGAGCCTCGTTCATT [Cy5-L-13t aptamer]”: binds [6]; no binding (streptavidin [7]).
